This is one part of the list.
Key:
Assay in all cases: log2 fold change, soluble protein after heating vs DMSO (PISA); higher = thermal stabilisation; K562 lysate, 10 uM; active = over 0.2 and 3.5 SD of the protein, either way, in both replicates (recomputed)
[1] = compound: Cc1cn(-c2cc(NC(=O)c3ccc(C)c(Nc4nccc(-c5cccnc5)n4)c3)cc(C(F)(F)F)c2)cn1 [nilotinib]
Outline: (§1)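 K562 pellets were dounce-homogenised in PBS pH 7.4 with 1 mM MgCl2, and the crude extract at 1 mg/mL protein was treated with 10 μM compound for 30 min. Aliquots were heated for 3 min across 48°C-58°C, pooled, and brought to 0.5% NP-40 at 4°C; soluble protein was the supernatant after 21,000xg for 90 min. Soluble protein was quantified by TMTpro 16plex LC-MS/MS with channel sums equalised, and reported as log2 fold change in thermal stability against DMSO controls, with values from duplicates.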

Amino acid sequences for entries named in this document (tags omitted). A change or cut given only in a name is not applied to a line headed by its entry.
UniProt Q8N4L2: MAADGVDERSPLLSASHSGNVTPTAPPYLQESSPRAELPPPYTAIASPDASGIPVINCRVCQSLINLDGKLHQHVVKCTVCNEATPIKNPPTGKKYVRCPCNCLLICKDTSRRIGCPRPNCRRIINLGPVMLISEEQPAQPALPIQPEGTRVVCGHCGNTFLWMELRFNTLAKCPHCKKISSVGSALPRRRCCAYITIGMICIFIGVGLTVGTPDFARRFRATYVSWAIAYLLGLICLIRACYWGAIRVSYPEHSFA
UniProt O95336: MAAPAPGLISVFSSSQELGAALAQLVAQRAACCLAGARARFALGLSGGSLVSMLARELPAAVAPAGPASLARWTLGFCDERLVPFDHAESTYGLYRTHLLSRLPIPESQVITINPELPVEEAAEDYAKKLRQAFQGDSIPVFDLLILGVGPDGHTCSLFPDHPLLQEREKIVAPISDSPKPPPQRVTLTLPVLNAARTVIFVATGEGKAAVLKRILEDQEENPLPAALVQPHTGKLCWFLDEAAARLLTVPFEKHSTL
UniProt O00625: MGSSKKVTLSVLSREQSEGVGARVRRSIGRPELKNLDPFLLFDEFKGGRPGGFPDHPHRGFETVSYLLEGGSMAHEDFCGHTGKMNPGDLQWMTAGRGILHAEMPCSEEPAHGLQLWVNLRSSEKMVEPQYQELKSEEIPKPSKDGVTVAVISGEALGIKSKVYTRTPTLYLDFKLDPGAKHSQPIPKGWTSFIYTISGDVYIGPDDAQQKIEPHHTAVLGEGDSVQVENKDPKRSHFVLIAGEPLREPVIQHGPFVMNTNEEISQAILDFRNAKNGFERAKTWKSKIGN
UniProt Q8NDX5: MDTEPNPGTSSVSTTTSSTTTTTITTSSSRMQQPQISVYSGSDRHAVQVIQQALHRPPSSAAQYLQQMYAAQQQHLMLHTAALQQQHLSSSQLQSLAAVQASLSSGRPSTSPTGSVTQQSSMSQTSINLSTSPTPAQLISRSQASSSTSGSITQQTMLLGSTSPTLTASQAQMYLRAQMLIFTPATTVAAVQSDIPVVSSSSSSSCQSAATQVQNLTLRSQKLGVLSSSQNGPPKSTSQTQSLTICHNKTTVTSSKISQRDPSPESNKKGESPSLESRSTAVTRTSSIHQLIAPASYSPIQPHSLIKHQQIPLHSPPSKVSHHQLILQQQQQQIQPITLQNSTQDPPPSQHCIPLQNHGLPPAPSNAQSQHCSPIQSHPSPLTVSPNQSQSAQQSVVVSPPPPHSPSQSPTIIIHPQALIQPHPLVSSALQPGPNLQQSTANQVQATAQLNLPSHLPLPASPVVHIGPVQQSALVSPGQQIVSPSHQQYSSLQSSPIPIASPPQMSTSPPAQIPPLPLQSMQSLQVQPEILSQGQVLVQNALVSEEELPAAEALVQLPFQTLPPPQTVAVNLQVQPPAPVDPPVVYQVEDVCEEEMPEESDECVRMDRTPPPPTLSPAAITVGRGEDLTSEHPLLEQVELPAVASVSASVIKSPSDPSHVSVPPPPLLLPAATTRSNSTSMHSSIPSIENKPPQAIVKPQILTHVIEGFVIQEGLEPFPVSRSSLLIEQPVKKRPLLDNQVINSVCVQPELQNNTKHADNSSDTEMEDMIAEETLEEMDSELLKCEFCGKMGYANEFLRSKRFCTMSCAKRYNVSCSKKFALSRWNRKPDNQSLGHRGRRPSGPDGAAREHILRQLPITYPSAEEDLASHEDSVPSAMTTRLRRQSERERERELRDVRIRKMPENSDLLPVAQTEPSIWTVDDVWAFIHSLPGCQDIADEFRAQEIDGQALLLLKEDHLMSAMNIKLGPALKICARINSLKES
UniProt Q9NRD5, whole entry, looked up: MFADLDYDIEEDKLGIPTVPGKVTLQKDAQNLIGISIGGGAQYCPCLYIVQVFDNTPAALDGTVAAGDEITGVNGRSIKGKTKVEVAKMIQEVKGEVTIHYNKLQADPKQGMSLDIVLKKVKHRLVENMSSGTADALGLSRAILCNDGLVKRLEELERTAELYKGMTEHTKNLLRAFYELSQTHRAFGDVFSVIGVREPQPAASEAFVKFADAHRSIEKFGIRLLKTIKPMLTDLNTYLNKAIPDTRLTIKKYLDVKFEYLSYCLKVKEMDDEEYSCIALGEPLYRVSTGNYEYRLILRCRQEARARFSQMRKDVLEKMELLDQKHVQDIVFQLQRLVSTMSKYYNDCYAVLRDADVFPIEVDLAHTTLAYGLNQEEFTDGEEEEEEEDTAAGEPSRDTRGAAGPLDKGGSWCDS
UniProt Q8TBX8: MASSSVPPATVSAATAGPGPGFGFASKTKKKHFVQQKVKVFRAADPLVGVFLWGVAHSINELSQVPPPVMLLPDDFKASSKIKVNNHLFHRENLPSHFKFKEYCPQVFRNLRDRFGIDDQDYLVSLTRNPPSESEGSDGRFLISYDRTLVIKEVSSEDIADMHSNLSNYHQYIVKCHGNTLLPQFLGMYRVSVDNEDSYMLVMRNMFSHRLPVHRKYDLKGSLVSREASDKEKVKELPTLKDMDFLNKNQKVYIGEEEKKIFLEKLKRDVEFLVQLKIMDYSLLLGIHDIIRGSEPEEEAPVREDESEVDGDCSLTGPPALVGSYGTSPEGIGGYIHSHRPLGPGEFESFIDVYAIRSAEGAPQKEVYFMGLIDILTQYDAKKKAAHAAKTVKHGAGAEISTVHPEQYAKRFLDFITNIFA
UniProt Q9P1Y6: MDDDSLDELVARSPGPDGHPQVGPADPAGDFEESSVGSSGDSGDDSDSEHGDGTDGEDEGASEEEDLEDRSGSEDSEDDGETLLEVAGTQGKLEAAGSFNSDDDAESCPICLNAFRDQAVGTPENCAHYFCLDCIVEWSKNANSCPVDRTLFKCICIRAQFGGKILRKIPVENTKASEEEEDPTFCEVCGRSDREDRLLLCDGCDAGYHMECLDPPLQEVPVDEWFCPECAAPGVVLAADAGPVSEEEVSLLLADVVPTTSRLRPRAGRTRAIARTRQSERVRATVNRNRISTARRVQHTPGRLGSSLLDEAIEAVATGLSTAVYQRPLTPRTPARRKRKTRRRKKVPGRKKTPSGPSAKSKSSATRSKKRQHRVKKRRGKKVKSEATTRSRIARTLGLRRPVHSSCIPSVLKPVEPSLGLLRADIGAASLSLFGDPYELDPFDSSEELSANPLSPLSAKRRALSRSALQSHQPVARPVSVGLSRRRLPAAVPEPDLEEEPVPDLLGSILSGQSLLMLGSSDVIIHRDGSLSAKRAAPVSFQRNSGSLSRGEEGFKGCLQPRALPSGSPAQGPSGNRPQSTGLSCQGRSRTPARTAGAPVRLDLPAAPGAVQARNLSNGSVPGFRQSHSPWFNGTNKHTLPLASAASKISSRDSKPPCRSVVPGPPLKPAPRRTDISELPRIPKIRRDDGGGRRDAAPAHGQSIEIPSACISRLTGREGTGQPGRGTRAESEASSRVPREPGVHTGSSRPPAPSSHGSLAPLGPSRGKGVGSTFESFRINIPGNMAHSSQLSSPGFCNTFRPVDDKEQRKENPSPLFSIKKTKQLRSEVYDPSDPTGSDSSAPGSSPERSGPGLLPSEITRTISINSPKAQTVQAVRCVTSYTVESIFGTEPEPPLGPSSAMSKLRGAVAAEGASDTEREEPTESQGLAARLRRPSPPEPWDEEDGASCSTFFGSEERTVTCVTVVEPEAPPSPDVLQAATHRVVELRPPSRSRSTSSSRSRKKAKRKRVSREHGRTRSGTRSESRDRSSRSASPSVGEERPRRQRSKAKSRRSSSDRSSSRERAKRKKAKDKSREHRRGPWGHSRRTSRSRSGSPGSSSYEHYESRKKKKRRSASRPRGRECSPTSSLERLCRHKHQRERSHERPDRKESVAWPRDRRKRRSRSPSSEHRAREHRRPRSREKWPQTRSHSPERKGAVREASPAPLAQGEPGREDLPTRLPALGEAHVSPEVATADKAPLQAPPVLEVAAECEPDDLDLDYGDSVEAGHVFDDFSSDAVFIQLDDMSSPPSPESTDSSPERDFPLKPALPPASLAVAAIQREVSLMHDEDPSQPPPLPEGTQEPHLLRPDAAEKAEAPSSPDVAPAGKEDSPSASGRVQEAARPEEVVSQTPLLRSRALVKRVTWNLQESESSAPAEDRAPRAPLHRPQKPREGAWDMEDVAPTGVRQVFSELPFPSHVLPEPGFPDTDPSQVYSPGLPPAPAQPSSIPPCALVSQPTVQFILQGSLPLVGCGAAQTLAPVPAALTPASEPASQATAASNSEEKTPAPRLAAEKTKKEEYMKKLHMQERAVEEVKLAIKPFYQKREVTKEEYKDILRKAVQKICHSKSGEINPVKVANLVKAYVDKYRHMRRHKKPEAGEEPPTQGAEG
UniProt O94880: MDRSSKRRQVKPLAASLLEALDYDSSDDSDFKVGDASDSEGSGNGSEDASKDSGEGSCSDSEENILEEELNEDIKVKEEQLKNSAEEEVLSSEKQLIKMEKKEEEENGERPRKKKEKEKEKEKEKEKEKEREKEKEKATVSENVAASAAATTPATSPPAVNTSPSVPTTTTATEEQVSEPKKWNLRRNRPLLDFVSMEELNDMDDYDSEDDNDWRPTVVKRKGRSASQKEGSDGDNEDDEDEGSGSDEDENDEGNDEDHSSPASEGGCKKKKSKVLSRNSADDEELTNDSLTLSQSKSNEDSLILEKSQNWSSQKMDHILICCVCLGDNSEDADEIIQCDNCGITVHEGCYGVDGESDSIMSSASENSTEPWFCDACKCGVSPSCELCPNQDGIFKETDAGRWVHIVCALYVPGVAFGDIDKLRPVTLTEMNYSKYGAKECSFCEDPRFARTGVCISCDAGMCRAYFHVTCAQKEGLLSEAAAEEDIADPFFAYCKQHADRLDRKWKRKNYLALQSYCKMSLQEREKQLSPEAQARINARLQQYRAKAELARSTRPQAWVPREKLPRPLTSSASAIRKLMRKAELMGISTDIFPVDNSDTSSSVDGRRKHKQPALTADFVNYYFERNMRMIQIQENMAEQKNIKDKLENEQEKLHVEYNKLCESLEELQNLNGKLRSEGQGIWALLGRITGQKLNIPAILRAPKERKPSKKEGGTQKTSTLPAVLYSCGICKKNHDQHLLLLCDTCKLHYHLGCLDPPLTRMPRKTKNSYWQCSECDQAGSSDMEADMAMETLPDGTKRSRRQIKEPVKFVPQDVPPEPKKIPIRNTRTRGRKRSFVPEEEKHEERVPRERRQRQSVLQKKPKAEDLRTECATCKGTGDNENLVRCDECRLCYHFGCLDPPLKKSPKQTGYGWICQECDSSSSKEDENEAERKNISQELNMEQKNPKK
UniProt Q9H814, whole entry, looked up: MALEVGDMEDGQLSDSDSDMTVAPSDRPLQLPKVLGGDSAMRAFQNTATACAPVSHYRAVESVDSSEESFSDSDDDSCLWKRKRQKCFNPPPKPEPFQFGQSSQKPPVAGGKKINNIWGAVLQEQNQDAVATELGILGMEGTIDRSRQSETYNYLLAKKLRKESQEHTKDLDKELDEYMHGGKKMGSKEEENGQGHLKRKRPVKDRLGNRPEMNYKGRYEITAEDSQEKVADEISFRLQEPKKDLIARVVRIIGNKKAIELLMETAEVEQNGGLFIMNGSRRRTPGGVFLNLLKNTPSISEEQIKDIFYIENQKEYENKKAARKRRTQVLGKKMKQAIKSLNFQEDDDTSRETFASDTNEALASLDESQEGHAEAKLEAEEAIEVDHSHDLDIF
UniProt Q8IZ21: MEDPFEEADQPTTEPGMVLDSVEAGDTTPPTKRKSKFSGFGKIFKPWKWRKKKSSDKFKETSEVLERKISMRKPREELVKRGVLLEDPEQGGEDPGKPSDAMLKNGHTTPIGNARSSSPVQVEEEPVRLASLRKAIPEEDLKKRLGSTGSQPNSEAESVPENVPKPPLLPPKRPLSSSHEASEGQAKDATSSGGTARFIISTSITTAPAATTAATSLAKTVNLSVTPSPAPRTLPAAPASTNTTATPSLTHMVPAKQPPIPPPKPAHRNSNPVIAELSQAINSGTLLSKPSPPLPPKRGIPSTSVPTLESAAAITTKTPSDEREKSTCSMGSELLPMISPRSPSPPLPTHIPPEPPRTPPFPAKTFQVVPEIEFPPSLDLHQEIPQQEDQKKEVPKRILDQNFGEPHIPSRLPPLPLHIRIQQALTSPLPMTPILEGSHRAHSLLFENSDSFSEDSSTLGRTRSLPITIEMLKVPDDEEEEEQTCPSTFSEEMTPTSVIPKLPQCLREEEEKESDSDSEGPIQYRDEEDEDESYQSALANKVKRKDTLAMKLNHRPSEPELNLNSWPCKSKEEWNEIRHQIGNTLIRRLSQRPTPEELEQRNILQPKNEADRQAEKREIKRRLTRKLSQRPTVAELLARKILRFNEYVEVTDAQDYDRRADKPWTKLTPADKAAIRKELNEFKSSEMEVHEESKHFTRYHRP
UniProt P35232: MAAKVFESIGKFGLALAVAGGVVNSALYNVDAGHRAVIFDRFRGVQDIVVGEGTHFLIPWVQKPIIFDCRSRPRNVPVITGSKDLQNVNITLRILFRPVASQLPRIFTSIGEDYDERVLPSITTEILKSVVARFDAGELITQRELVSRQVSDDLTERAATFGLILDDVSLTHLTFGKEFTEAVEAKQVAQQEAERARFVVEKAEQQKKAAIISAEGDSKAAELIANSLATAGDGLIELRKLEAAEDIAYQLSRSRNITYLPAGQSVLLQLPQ

[2] = compound: Cc1nc(Nc2n[nH]c3c2CN(C(=O)N[C@H](CN(C)C)c2ccccc2)C3(C)C)c2sccc2n1
Outline: as §1

[3] = compound: Cc1nc(Nc2ncc(C(=O)Nc3c(C)cccc3Cl)s2)cc(N2CCN(CCO)CC2)n1 [dasatinib]
Outline: as §1

[4] = compound: Cc1ncc(-c2ccnc(Nc3ccc(S(C)(=O)=O)cc3)n2)n1C(C)C
Outline: as §1

[5] = compound: Cn1cc(-c2ccc3c(c2)CCN3C(=O)Cc2cccc(C(F)(F)F)c2)c2c(N)ncnc21
Outline: as §1

[6] = compound: Cn1cc(CNCC2CCN(c3ncc(C(=O)NO)cn3)CC2)c2ccccc21 [quisinostat]
Outline: as §1

[7] = compound: Cn1cncc1[C@@](N)(c1ccc(Cl)cc1)c1ccc2c(c1)c(-c1cccc(Cl)c1)cc(=O)n2C [tipifarnib]
Outline: as §1

[8] = compound: NC(=O)Nc1cc(-c2cccc(F)c2)sc1C(=O)N[C@H]1CCCNC1
Outline: as §1

[9] = compound: NC(=O)c1cnc(N[C@@H]2CCCC[C@@H]2N)nc1Nc1cccc(-n2nccn2)c1
Outline: as §1

[10] = compound: NC1(c2ccc(-c3nc4ccn5c(=O)[nH]nc5c4cc3-c3ccccc3)cc2)CCC1
Outline: as §1

Row | Target | log2 fold change [1] | log2 fold change [2] | log2 fold change [3] | log2 fold change [4] | log2 fold change [5] | log2 fold change [6] | log2 fold change [7] | log2 fold change [8] | log2 fold change [9] | log2 fold change [10]
1 | PKM (UniProt P14618) | inactive: -0.01 | inactive: -0.028 | inactive: -0.014 | inactive: 0 | inactive: -0.018 | inactive: 0.017 | inactive: 0.006 | inactive: -0.009 | inactive: 0.001 | inactive: 0.027
2 | PLBD2 (UniProt Q8NHP8) | inactive: 0.016 | inactive: -0.041 | inactive: 0.023 | inactive: -0.134 | inactive: -0.002 | inactive: -0.057 | inactive: 0.004 | inactive: -0.002 | inactive: 0.011 | inactive: -0.016
3 | PLD3 (UniProt Q8IV08) | inactive: -0.01 | inactive: -0.013 | inactive: -0.029 | inactive: -0.01 | inactive: 0.01 | inactive: -0.046 | inactive: -0.022 | inactive: 0.042 | inactive: 0.02 | inactive: 0.019
4 | PIGK (UniProt Q92643) | inactive: -0.017 | inactive: 0.051 | inactive: 0.007 | inactive: -0.023 | inactive: 0.004 | inactive: 0.067 | inactive: -0.016 | inactive: 0.016 | inactive: 0.027 | inactive: 0.002
5 | PLA2G4B isoform 6 (UniProt P0C869) | inactive: -0.177 | inactive: 0.259 | inactive: -0.1 | inactive: -0.326 | inactive: -0.047 | active: -0.671 | inactive: 0.022 | inactive: 0.158 | inactive: 0.006 | inactive: -0.073
6 | PIP4P2 (UniProt Q8N4L2) | active: 0.287 | inactive: -0.073 | inactive: -0.171 | inactive: -0.015 | inactive: -0.048 | inactive: 0.035 | inactive: -0.148 | inactive: -0.016 | inactive: 0.121 | inactive: -0.007
7 | PIP5K1C isoform 3 (UniProt O60331) | inactive: -0.254 | inactive: 0.052 | inactive: 0.058 | inactive: -0.088 | inactive: -0.011 | inactive: -0.126 | inactive: 0.015 | inactive: 0.024 | inactive: 0.002 | inactive: -0.04
8 | PHF6 (UniProt Q8IWS0) | inactive: 0.022 | inactive: 0.031 | inactive: 0 | inactive: 0.003 | inactive: 0.024 | inactive: 0.101 | inactive: -0.046 | inactive: -0.016 | inactive: 0.014 | inactive: 0.053
9 | PGLS (UniProt O95336) | inactive: 0.008 | inactive: -0.021 | inactive: 0.001 | inactive: 0.168 | inactive: 0.022 | inactive: 0.017 | inactive: -0.013 | inactive: -0.017 | inactive: -0.073 | inactive: 0.014
10 | PGM3 isoform 4 (UniProt O95394) | inactive: 0.004 | inactive: -0.007 | inactive: -0.017 | inactive: -0.015 | inactive: 0.037 | inactive: 0.026 | inactive: 0.008 | inactive: 0.002 | inactive: 0.001 | inactive: 0.016
11 | PIR (UniProt O00625) | inactive: 0.011 | inactive: -0.011 | inactive: 0.027 | inactive: 0.012 | inactive: 0.023 | inactive: 0.011 | inactive: 0.005 | inactive: 0.02 | inactive: -0.009 | inactive: -0.046
12 | PHKG1 isoform 2 (UniProt Q16816) | inactive: -0.049 | active: 1.01 | inactive: -0.124 | inactive: -0.204 | inactive: -0.021 | inactive: -0.151 | inactive: -0.007 | active: 1.31 | inactive: 0.043 | inactive: -0.181
13 | PGK1 (UniProt P00558) | inactive: 0.014 | inactive: -0.017 | inactive: -0.008 | inactive: 0.01 | inactive: -0.011 | inactive: 0.035 | inactive: 0.03 | inactive: 0.002 | inactive: -0.009 | inactive: 0.001
14 | PHC3 isoform 7 (UniProt Q8NDX5) | inactive: -0.188 | inactive: -0.016 | inactive: -0.001 | inactive: -0.063 | inactive: 0.109 | inactive: -0.073 | inactive: -0.008 | inactive: 0.112 | inactive: -0.004 | inactive: 0.05
15 | PICK1 (UniProt Q9NRD5) | inactive: 0.018 | inactive: -0.061 | inactive: 0.047 | inactive: -0.009 | inactive: 0.021 | inactive: 0.105 | inactive: -0.028 | inactive: -0.007 | inactive: 0.008 | inactive: -0.001
16 | PHF3 (UniProt Q92576) | inactive: -0.052 | inactive: 0.012 | inactive: -0.014 | inactive: 0.022 | inactive: 0.002 | inactive: -0.13 | inactive: -0.03 | inactive: 0.023 | inactive: 0.004 | inactive: 0.023
17 | PIP4K2C (UniProt Q8TBX8) | inactive: 0.169 | inactive: -0.015 | inactive: 0.047 | inactive: 0.298 | inactive: 0.029 | inactive: -0.095 | inactive: -0.012 | inactive: 0.035 | inactive: 0.033 | inactive: -0.085
18 | PHRF1 (UniProt Q9P1Y6) | inactive: 0.071 | inactive: -0.018 | inactive: 0.048 | inactive: -0.07 | inactive: -0.028 | inactive: 0.06 | inactive: 0.015 | inactive: -0.071 | inactive: 0.082 | inactive: -0.047
19 | PIEZO1 (UniProt Q92508) | inactive: 0.006 | inactive: -0.024 | inactive: 0.015 | inactive: 0.001 | inactive: 0.039 | inactive: -0.019 | inactive: 0.008 | inactive: -0.004 | inactive: -0.046 | inactive: 0.035
20 | PKP3 isoform 2 (UniProt Q9Y446) | inactive: -0.034 | inactive: -0.021 | inactive: 0 | inactive: -0.039 | inactive: -0.001 | inactive: -0.012 | inactive: 0.007 | inactive: -0.051 | inactive: -0.021 | inactive: 0.02
21 | PGP (UniProt A6NDG6) | inactive: 0.008 | inactive: 0.026 | inactive: 0.043 | inactive: 0.037 | inactive: -0.021 | inactive: 0.02 | inactive: -0.021 | inactive: -0.005 | inactive: 0.004 | inactive: 0.016
22 | PHF14 (UniProt O94880) | inactive: -0.127 | inactive: -0.203 | inactive: -0.1 | inactive: 0.082 | inactive: 0.085 | – | inactive: 0.073 | – | inactive: -0.077 | –
23 | PHAX (UniProt Q9H814) | inactive: 0.003 | inactive: -0.022 | inactive: 0.015 | inactive: -0.065 | inactive: -0.031 | inactive: -0.017 | inactive: 0.008 | inactive: -0.016 | inactive: 0.026 | inactive: 0.036
24 | PITPNM1 (UniProt O00562) | inactive: -0.053 | inactive: -0.038 | – | inactive: 0.014 | – | inactive: -0.368 | inactive: -0.073 | inactive: 0.038 | – | –
25 | PHF10 (UniProt Q8WUB8) | inactive: 0.007 | inactive: 0.066 | inactive: 0.028 | inactive: -0.026 | inactive: -0.001 | inactive: -0.023 | inactive: -0.02 | inactive: 0.065 | inactive: 0.007 | inactive: -0.006
26 | PIM1 isoform 2 (UniProt P11309) | inactive: 0.059 | inactive: -0.025 | inactive: -0.033 | inactive: 0.063 | inactive: 0.112 | inactive: -0.085 | inactive: 0.061 | inactive: 0.038 | – | inactive: -0.146
27 | PHACTR4 isoform 2 (UniProt Q8IZ21) | inactive: 0.005 | inactive: -0.004 | inactive: 0.022 | inactive: -0.016 | inactive: 0.012 | inactive: -0.017 | inactive: -0.015 | inactive: -0.006 | inactive: -0.002 | inactive: -0.027
28 | PHB (UniProt P35232) | inactive: 0.001 | inactive: 0.066 | inactive: 0.049 | inactive: -0.006 | inactive: -0.006 | inactive: 0.03 | inactive: -0.007 | inactive: -0.054 | inactive: -0.008 | inactive: 0.019
29 | PHKB isoform 3 (UniProt Q93100) | inactive: -0.007 | inactive: 0.121 | inactive: -0.023 | inactive: 0.001 | inactive: 0.008 | inactive: -0.063 | inactive: -0.035 | active: 0.28 | inactive: 0.004 | inactive: -0.058

Record cards (already shown). Values in the order: log2 fold change [1]	log2 fold change [2]	log2 fold change [3]	log2 fold change [4]	log2 fold change [5]	log2 fold change [6]	log2 fold change [7]	log2 fold change [8]	log2 fold change [9]	log2 fold change [10]
PLBD2 (UniProt Q8NHP8) is entered as inactive: 0.016	inactive: -0.041	inactive: 0.023	inactive: -0.134	inactive: -0.002	inactive: -0.057	inactive: 0.004	inactive: -0.002	inactive: 0.011	inactive: -0.016
PHF10 (UniProt Q8WUB8) is entered as inactive: 0.007	inactive: 0.066	inactive: 0.028	inactive: -0.026	inactive: -0.001	inactive: -0.023	inactive: -0.02	inactive: 0.065	inactive: 0.007	inactive: -0.006

Source: the supplement of paper PMC10849652
